According to patent US20080312263A1, “PHARMACEUTICAL COMPOSITIONS FOR THE PREVENTION AND TREATMENT OF ATHEROSCLEROSIS” (UNIVERSITE RENE DESCARTES-PARIS 5, priority 2004, published 2008):

Key:
[1] = rabbit, in vivo
[2] = system: Watanabe rabbits; experiment: Lipid profile (plasmatic cholesterol, triglycerides, HDL, LDL) in treated Watanabe rabbits; type: in vivo, rabbit; details: for plasmatic triglycerides concentration, course: FIG. 4
Procedure: 2. […] The cholesterol is assayed according to an enzymatic colorimetric test using a cholesterol-esterase and a cholesterol-oxidase, followed by a reaction with a peroxidase. The latter reacts with hydrogen peroxide and releases a red derivative the stain intensity of which (measured between 550 and 700 nm) is directly proportional to the cholesterol concentration. The triglyceride assay is also based on this principle, using a lipase which releases glycerol, and a peroxidase which reacts with the hydrogen peroxide and forms a red compound. The HDL cholesterol is assayed by an enzymatic calorimetric test in two phases. The first selects the different lipid fractions by means of dextran sulphate. […] The results are expressed in mmol/l. The kits necessary for all these assays are supplied by RANDOX (Montpellier, France).

## CC(C)c1c(C(=O)Nc2ccccc2)c(-c2ccccc2)c(-c2ccc(F)cc2)n1CC[C@@H](O)C[C@@H](O)CC(=O)O [atorvastatin, Atorvastatin]
[1]
  plasmatic arginine concentration, course: the same for the control group and the statin group
[2]; 8 weeks treatment, versus control at T8, FIG. 3
  effect on the plasmatic cholesterol: beneficial effect
[2]; between T0 and T8
  reduction of the plasmatic cholesterol concentration: 27%
  plasmatic triglycerides concentration, course: virtually constant
[2]; between T0 and T8, listed as atorvastatin alone
  plasmatic triglycerides concentration, course: does not increase
